Here are results for one substance from article PMC6868355.

The target in assay [1] is recombinant enolase of Sporothrix schenckii (rSsEno) (Sporothrix schenckii) (UniProt U7PSS1). The experiment in a line: SEC; analytical SEC, Superdex 200 GL 10/30, Tris-HCl pH 7.5, 100 mM NaCl, 2 mM beta-mercaptoethanol, room temperature; void marked with blue dextran; no magnesium; both purified. (In general: SEC sorts molecules by how far they enter the pores of the column.)

For assay [2] the target is unchanged. Briefly: SAXS; data not shown; rSsEno at 0.5 and 0.9 mg/mL in Tris-HCl pH 7.5, 100 mM NaCl, 2 mM beta-mercaptoethanol; Guinier analysis, extrapolated to infinite dilution; both purified.

Results are given in words; binding and its absence hold for the method and conditions named. Some entries that bind do so weakly or less than the wild type.

For “recombinant enolase of Sporothrix schenckii (rSsEno) (from UniProt U7PSS1 1-438) (enzyme)”, the binding entry in assay [1] and in assay [2] was “binds” in each case.
